These are yes or no findings as the source states them, for the method shown. In cells and extracts the contact can be indirect. Some results given as binding are weak or reduced against the parent protein; the word gives no strength. Sequences can lack the tags named with a protein.

The record followed here is paper PMC5437272, “ISCA1 is essential for mitochondrial Fe4S4 biogenesis in vivo” (Nature Communications, 2017).

This assay addresses T1, ISCA1-Flag (mouse ISCA1 with a C-terminal Flag epitope) (mouse) (UniProt Q9D924).
T1 sequence: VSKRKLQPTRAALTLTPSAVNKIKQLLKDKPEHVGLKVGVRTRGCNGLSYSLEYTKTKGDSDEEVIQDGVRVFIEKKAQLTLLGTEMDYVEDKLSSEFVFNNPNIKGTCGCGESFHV
The assay can be described thus: co-IP; Flag M2 resin IP from mitochondria-enriched extracts of N2a cells transfected with ISCA1-Flag, ISCA2-Flag or IBA57-Flag, versus control IP; western blot of the eluates.

B1: NFU1 (endogenous, N2a) (protein, UniProt Q9QZ23 30-255)
chain: FKKQPLHQYVRRPLFPLRAPLCNTVRFMFIQTQDTPNPNSLKFIPGKPVLETRTMDFPTPAAAFRSPLARQLFRIEGVKSVFFGPDFITVTKENEELDWNLLKPDIYATIMDFFASGLPLVTEETPPPPGEAGSEEDDEVVAMIKELLDTRIRPTVQEDGGDVIYRGFEDGIVRLKLQGSCTSCPSSIITLKSGIQNMLQFYIPEVEGVEQVMDDDESDEKEANSS
Turning to B1, the binding result is on record as “binds”.
